Patent US11839616B2, “Ocular pharmaceutical compositions” (THE REGENTS OF THE UNIVERSITY OF CALIFORNIA, priority 2017, dated 2023)
At least one structure is not confirmed: it was looked up by name or label, or the drawing left a doubt.

The chains behind the UniProt entries cited, without tags or fusion partners.
UniProt Q00554, whole entry: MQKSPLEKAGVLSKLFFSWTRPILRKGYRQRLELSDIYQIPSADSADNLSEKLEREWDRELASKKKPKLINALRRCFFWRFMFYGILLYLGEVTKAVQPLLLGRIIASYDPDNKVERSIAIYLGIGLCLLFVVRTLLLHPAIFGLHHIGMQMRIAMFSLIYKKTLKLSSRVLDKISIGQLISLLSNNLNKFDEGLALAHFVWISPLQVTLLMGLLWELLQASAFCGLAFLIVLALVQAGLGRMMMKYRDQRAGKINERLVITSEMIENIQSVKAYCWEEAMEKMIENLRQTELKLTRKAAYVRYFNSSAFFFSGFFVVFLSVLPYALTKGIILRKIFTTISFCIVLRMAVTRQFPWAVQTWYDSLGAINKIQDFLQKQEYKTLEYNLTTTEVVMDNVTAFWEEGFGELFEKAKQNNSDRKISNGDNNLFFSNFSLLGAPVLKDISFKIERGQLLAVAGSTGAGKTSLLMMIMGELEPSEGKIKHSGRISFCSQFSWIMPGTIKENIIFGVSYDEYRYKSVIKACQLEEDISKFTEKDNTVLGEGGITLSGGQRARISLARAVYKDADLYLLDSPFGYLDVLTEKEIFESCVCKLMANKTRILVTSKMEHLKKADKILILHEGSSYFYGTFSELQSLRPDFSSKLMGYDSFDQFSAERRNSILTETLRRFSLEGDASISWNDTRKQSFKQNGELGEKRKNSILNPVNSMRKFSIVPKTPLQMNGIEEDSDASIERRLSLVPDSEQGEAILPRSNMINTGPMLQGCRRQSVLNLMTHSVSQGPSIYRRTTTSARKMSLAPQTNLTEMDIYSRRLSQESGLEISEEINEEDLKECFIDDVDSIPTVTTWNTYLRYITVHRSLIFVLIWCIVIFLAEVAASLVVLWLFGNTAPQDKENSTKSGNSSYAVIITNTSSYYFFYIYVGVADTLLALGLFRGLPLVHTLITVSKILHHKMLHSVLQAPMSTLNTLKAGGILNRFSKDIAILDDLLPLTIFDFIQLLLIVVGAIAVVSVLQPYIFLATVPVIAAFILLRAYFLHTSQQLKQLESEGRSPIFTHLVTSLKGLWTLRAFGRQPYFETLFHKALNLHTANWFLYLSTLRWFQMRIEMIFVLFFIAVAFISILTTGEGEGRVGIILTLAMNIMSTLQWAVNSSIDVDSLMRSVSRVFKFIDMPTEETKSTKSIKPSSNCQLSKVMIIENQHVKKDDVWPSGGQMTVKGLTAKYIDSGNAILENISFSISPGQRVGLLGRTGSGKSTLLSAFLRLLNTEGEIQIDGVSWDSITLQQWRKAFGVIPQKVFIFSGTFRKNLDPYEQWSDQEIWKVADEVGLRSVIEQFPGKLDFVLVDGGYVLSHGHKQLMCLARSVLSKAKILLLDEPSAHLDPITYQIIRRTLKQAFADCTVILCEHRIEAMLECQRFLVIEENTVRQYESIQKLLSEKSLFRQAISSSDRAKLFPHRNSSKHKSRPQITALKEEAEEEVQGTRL

Experiments:
[1] = target: T1, CFTR (Oryctolagus cuniculus, UniProt Q00554); assay: open-circuit ocular surface potential difference (PD) in anesthetized rabbits, CFTR; assay type: in vivo; settings: rabbit, forskolin 20 μM added to Compound A 10 μM
T1 construct: ocular surface PD measurements provide information about CFTR function in its native environment; from tissue; host or cells: rabbit ocular surface in vivo (cornea and conjunctiva); freshly isolated rabbit forniceal and palpebral conjunctiva

[2] = target: T1, CFTR; assay: short-circuit current in freshly isolated rabbit conjunctiva, CFTR; assay type: cell-based

C=C[C@@]1(C)CC(=O)[C@]2(O)[C@@]3(C)[C@@H](O)CCC(C)(C)[C@@H]3[C@H](O)[C@H](OC(C)=O)[C@@]2(C)O1 [forskolin]
further change in ocular surface PD after Compound A [1]: minimally further increased
CFTR activation (short-circuit current) ([2]; high concentration of forskolin): Maximal CFTR activation
change in short-circuit current ([2]; low concentration of forskolin (25 nM)): small increase in current
